# Measurements reported in article PMC10632493.
# By UniProt entry, the sequences of proteins in these tests, tags left out.
# UniProt Q9C0C2: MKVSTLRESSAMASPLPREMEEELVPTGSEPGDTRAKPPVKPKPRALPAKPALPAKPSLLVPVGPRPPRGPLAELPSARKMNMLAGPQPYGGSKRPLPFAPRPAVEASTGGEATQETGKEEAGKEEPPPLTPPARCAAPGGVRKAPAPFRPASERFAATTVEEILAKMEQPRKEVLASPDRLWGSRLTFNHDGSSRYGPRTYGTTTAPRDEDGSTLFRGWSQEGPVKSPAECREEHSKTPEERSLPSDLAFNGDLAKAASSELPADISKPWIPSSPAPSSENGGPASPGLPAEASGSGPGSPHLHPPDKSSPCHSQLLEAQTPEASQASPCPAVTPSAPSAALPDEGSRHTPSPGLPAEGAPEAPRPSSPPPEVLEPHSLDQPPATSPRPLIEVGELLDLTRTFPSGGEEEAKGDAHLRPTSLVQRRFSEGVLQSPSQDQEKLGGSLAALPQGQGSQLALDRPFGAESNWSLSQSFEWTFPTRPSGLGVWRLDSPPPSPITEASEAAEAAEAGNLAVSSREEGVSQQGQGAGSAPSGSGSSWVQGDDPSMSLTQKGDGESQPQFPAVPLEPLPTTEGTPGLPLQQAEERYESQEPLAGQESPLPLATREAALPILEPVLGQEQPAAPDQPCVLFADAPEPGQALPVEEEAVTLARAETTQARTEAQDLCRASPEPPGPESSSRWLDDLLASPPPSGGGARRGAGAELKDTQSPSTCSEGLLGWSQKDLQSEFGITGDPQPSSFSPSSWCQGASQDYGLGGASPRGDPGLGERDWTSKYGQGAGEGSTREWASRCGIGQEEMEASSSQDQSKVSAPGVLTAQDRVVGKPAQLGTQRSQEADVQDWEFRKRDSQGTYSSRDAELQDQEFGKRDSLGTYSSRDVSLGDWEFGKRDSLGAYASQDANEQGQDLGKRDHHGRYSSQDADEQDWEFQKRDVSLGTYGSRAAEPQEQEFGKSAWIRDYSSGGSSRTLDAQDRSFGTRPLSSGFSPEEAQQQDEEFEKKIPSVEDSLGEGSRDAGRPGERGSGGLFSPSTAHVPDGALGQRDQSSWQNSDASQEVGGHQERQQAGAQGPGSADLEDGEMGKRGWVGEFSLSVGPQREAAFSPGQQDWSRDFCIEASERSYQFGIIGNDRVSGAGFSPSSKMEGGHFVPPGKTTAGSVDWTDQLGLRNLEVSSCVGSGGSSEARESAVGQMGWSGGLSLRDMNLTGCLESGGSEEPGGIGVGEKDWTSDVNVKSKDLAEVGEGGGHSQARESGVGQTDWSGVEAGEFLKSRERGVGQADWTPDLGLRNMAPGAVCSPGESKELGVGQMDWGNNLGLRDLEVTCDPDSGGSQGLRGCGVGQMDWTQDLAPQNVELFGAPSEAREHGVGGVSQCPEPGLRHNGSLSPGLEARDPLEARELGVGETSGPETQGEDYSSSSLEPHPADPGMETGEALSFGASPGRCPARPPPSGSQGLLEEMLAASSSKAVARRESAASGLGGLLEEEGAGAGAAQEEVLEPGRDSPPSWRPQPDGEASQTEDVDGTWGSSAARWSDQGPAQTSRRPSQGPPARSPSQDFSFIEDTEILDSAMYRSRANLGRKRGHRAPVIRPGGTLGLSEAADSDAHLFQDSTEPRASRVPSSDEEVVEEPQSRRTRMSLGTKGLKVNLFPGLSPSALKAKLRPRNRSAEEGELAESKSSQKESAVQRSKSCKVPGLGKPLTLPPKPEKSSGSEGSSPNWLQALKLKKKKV
# Molecular target: Flag-epitope-tagged RNF166 (FlagRNF166) (UniProt Q96A37)
# Assay: affinity purification with mass spectrometry; cells transfected with FlagRNF166 alone, FlagRNF166 plus TNKS1, or FlagBAP plus TNKS1 (TNKS1/2 DKO cells by the results, HEK293T by the methods); anti-Flag beads, elution with 3xFlag peptide; LC-MS/MS
substance,measurement,value
"endogenous tankyrase binding protein 1, TNKSBP1 (TAB182) (from UniProt Q9C0C2 1-1729)",binding,binds

# Results are given in words; binding and its absence hold for the method and conditions named. Binding seen in cells or lysates may run through a third protein. A yes stands for co-enrichment or nearness to the bait. Other partners may have been found.
